According to article PMC12664034, “The E3 ubiquitin ligase SPRYD3-MYCBP2(PAM) regulates mitotic cell fate and ubiquitination of USP11 to control spindle assembly” (The Journal of Biological Chemistry, 2025):
These are yes or no findings as the source states them, for the method shown. Binding seen in cells or lysates may run through a third protein. Some results given as binding are weak or reduced against the parent protein; the word gives no strength. For some assays here: Sequences can lack the tags named with a protein.

Protein sequences, listed by entry. Tags and fused reporters are not part of them. Lines headed by an entry give the natural chain unless they say otherwise; changes in a name come on top.
UniProt O75592: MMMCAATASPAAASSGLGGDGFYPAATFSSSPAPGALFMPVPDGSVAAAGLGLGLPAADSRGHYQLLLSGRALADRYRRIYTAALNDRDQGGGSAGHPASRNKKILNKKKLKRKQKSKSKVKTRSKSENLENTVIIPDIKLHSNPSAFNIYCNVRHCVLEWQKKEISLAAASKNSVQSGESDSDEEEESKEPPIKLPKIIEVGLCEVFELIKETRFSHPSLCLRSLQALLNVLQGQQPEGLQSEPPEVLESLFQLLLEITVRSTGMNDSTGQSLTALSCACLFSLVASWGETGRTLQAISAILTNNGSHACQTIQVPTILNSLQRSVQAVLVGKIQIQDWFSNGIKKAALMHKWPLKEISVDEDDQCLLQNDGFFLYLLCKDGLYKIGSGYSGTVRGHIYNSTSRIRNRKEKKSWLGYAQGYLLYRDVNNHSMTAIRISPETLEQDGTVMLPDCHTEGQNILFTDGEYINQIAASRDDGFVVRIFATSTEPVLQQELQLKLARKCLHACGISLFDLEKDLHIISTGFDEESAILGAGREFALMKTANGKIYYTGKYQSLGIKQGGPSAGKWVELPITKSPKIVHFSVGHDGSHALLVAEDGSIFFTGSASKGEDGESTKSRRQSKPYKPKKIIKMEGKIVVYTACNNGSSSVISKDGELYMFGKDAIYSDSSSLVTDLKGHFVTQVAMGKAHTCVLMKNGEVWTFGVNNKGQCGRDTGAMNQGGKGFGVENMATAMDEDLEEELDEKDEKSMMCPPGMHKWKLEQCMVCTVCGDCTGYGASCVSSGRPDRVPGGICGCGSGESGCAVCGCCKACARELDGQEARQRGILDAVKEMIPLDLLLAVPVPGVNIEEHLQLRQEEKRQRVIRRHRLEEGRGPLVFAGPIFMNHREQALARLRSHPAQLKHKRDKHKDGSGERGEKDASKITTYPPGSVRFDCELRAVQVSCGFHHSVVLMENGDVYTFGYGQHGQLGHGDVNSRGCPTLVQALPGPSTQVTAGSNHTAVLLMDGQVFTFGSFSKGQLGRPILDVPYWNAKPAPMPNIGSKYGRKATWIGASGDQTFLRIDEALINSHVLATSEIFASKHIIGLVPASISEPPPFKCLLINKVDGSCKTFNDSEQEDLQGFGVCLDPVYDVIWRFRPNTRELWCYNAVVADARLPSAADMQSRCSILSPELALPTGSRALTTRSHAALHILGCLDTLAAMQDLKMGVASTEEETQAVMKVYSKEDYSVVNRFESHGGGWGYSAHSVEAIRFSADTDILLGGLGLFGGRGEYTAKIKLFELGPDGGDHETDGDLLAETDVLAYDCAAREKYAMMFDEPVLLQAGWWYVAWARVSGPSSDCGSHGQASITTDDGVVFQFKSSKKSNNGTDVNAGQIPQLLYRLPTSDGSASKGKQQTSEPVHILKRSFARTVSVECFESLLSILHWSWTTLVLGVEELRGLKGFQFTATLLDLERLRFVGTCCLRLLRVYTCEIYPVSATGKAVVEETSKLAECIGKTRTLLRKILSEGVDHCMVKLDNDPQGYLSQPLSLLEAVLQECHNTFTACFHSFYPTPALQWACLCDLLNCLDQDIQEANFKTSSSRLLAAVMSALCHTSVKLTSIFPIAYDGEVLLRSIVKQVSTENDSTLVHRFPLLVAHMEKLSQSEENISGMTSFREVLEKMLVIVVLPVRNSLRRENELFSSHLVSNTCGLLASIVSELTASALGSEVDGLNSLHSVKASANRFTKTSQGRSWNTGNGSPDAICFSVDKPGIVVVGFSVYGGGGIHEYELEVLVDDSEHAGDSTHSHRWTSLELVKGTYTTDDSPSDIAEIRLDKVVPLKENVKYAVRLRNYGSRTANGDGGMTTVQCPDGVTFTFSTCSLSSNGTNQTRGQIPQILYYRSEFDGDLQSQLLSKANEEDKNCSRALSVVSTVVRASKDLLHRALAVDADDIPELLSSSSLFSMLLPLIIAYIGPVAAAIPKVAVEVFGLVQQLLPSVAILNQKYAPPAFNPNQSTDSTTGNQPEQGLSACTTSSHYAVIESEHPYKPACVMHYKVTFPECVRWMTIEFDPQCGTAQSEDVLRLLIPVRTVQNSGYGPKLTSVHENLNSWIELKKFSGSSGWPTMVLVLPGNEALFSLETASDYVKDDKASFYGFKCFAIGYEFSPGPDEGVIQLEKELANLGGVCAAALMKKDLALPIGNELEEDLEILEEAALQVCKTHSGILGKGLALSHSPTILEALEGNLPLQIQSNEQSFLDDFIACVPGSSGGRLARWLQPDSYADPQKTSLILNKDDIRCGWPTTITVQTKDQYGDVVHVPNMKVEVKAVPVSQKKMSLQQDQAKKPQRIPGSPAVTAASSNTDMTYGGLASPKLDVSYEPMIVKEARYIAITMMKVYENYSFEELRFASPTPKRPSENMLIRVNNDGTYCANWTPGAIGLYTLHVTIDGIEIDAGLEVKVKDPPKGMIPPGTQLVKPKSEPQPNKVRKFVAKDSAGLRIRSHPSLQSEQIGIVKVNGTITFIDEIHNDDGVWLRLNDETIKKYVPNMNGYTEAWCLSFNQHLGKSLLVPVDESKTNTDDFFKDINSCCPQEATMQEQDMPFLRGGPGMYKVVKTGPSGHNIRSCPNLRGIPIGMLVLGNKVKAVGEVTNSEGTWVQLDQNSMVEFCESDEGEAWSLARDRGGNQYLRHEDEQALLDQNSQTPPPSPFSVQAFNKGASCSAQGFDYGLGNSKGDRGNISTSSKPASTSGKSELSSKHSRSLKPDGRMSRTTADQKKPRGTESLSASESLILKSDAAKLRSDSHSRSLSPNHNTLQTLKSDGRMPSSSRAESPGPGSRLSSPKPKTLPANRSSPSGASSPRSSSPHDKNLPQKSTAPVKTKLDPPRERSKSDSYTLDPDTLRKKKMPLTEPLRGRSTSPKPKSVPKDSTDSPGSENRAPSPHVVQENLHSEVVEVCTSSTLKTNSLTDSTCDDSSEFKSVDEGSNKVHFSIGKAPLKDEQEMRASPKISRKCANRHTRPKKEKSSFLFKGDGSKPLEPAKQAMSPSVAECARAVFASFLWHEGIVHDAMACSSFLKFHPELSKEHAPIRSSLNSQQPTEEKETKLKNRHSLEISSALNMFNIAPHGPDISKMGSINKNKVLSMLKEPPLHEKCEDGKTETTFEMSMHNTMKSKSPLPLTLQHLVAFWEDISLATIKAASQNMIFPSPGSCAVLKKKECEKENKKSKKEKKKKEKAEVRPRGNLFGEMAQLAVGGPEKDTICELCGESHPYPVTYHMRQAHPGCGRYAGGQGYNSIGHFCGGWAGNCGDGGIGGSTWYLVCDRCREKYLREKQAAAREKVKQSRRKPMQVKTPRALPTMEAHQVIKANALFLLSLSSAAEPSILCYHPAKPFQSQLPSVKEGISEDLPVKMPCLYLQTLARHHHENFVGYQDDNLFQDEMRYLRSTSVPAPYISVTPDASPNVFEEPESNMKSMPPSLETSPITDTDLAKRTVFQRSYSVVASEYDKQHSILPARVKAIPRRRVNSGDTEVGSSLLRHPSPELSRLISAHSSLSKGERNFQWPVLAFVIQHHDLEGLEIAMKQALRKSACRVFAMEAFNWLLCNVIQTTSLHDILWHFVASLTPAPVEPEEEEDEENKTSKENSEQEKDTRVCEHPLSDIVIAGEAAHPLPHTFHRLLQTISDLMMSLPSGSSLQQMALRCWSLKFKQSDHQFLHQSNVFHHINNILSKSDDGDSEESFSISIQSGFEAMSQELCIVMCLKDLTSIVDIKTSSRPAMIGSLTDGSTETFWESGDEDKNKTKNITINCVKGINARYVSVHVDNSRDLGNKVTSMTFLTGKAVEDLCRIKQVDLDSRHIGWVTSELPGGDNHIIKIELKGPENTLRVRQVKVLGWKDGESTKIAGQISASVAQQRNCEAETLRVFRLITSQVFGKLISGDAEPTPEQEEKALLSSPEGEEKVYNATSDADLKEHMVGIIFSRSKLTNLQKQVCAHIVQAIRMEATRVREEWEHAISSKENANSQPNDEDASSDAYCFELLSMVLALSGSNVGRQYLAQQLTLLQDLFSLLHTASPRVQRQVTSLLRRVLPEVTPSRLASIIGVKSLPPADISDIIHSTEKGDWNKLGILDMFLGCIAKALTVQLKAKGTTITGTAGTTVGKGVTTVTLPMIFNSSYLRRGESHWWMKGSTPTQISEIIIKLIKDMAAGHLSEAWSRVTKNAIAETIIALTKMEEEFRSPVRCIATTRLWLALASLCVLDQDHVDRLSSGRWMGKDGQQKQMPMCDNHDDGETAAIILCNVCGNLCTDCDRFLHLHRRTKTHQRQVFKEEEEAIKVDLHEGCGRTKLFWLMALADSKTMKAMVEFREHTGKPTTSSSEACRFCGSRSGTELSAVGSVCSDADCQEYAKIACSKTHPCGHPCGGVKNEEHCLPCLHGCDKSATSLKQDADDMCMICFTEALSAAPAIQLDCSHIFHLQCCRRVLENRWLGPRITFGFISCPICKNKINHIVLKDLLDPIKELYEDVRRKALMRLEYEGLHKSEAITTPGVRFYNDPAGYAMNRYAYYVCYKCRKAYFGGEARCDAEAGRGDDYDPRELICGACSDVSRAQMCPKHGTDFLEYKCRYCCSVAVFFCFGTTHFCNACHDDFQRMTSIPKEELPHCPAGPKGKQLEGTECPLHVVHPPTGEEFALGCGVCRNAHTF
UniProt P51784: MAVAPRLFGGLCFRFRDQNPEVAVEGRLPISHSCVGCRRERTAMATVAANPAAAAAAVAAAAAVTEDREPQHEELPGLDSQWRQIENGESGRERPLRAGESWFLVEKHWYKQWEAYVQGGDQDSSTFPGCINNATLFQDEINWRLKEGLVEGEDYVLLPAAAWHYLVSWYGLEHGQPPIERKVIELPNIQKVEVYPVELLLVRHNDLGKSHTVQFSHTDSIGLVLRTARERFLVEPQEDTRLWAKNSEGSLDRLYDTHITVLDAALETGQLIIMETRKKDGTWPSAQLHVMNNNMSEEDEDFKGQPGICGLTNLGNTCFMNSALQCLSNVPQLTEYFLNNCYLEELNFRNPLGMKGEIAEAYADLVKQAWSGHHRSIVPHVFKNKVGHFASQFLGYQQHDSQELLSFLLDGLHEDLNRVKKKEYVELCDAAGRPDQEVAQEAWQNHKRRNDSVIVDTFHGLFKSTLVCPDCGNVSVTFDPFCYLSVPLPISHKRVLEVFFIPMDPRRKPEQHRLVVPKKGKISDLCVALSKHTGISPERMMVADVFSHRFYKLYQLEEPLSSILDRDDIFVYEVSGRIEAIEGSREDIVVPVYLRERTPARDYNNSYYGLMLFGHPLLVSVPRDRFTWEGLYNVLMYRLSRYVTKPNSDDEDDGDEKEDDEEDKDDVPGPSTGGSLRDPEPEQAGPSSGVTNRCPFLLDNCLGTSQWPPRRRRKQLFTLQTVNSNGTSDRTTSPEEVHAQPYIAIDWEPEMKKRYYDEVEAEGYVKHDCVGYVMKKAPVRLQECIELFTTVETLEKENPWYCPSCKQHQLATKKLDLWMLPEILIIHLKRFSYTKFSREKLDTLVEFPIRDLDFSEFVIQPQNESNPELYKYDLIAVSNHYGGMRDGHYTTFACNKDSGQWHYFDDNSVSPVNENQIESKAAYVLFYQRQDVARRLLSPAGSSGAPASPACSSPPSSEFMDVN

How the values were obtained:
[1] = biological target: T1, MYC-SPRYD3 (UniProt Q8NCJ5); assay: co-IP; two consecutive immunoprecipitations from co-transfected HEK293T WT cells (24 h, 10 μM MG132 5 h before harvest): Flag-IP, elution, then anti-MYC antibody with G-sepharose; Western blot
T1 sequence: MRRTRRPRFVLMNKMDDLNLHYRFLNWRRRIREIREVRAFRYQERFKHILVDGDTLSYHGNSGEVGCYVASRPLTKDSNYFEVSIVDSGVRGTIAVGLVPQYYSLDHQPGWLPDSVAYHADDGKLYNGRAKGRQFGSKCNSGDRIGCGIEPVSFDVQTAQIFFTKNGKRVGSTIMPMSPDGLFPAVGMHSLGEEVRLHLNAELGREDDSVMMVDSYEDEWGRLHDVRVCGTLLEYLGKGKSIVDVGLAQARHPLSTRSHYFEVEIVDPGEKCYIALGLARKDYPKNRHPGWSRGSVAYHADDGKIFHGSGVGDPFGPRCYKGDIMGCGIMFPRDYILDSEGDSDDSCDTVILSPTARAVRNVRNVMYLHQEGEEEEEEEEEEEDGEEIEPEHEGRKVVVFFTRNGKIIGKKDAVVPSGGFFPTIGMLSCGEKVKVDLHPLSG

[2] = biological target: T2, Flag-SPRYD3 (UniProt Q8NCJ5); assay: co-IP; co-transfected HEK293T WT (also ΔFBXO45) cells, 24 h or 48 h; NP-40 buffer lysate; Flag-M2 beads at 4 °C overnight; elution with 3x Flag peptide; Western blot
T2 sequence: T1 sequence

[3] = biological target: T3, Flag-FBXO45 (UniProt P0C2W1); assay: as above
T3 sequence: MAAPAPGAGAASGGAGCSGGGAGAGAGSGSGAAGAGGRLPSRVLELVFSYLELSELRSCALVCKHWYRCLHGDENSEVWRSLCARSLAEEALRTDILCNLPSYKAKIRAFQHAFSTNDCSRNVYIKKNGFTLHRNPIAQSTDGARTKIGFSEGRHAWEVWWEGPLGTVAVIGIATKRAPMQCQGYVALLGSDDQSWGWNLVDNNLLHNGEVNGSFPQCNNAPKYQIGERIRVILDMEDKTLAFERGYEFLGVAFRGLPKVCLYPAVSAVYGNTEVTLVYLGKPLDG

[4] = biological target: T4, endogenous SPRYD3 (human (endogenous in HEK293T)) (UniProt Q8NCJ5); assay: co-IP; endogenous proteins; HEK293T WT lysates (10 μM MG132 5 h before harvest) with anti-SPRYD3 or anti-IgG antibody overnight, protein A sepharose; washed with NP-40 buffer adjusted to 400 mM NaCl; Western blot
T4 sequence: T1 sequence

[5] = biological target: MYCBP2 (construct of Fig. S1G not shown) (UniProt O75592); assay: co-IP; mapping experiments of Fig. S1E, S1F, S1G and S3 with Flag-tagged MYCBP2 fragments and SPRYD3 deletion mutants; legends in the supplement, not shown

## GFP-USP11 (from UniProt P51784 1-963) (enzyme)
[1]
  binding: binds

## MYC-USP11 (from UniProt P51784 1-963) (enzyme)
[2]
  binding: binds
[3]
  binding: binds

## endogenous MYCBP2 (from UniProt O75592 1-4678)
[4]
  binding: binds

B1: MBP-SPRYD3 (natural protein, UniProt Q8NCJ5 1-442, looked up)
chain: T1 sequence
notes: SPRYD3; pMal-c2-MBP-SPRYD3; also called recombinant SPRYD3; source: E. coli Rosetta (DE3), purified (Amylose resin)
[5]
  binding: binds
